Test results taken from PMC3765993, “The duration of sleep promoting efficacy by dual orexin receptor antagonists is dependent upon receptor occupancy threshold” (BMC Neuroscience, 2013).
“Also recorded” adds a separate entry of the source.

System: rhesus monkeys
Assay: Rhesus monkey quantitative EEG spectral power
Assay type: in vivo
Conditions: 10 mg/kg p.o. 2 h before lights out, versus vehicle; for qEEG theta power during the inactive period: 10 mg/kg

Structure (SMILES) | qEEG gamma power (35–100 Hz) during the inactive period | qEEG theta power during the inactive period
CN1C(=O)CN=C(c2ccccc2)c2cc(Cl)ccc21 [Diazepam] | increased | substantially decreased; also recorded: suppressed
CN1CCN(C(=O)O[C@H]2c3nccnc3C(=O)N2c2ccc(Cl)cn2)CC1 [Eszopiclone] | increased | substantially decreased; also recorded: suppressed
